Source: US20100234238A1, “METHOD FOR PROFILING KINASE INHIBITORS” (Janssen Pharmaceutica N V, priority 2006, published 2010)
Further values from the same series stand in other lists.

Tested on: tyrosine kinase activity in lysates prepared from cell lines
Test: PAMCHIP96 tyrosine peptide array profiling of lysates of 27 cell lines in absence or presence of MTKI
Assay type: biochemical
Conditions: 5 μM
Text: PAMGENE technology using the tyrosine peptide PAMCHIP96 allows the kinetic detection of the phosphorylation of 144 tyrosine peptides spotted onto a 3-dimensional porous well of a 96-well plate (www.pamgene.com). This technology can be used to measure the activity of purified kinases and the effects of kinase inhibitors thereon. Phosphotyrosine peptides are detected using a mix of fluorescently labeled anti-phosphotyrosine antibodies. Phosphorylation of peptides can be followed in real time due to the possibility of removing the reaction mix for a few seconds during the assay by a pumping mechanism to allow CCD camera detection of phosphopeptides bound to the fluorescent antibody. These consecutive datapoints (quantified spot images) generate a kinetic curve for each individual peptide, and allow for the calculation of initial velocities and endpoints associated with each individual peptide.
Cells cultured in appropriate medium in T175 flasks, treated with compound if necessary, are harvested at 70-90% confluency.
Media is removed, cells are washed with 10 ml ice cold PBS containing 0.1 mM NaVO4 and lysed in 1 ml of M-PER buffer (PIERCE) containing phosphatase and protease inhibitors (HALT, PIERCE). Cells are collected by scraping, and centrifuged for 10 minutes at 12 000×g. Supernatant lysates are filtered through a 0.2 micrometer filter (Anotop 0.2 μm anopore filter; Whatmann). Lysates are flash frozen in liquid nitrogen and stored at −80C.
Just prior to the PAMCHIP experiment, total protein content is quantitated in the lysates and lysates are diluted to 1 mg/ml in a total volume of 200 μl, with M-PER phosphatase and protease inhibitors (HALT, PIERCE). 10 μg of total lysate (corresponding to 10 μl) will be used per well on the PAMCHIP96.
To all 200 μl lysates 10 units of benzonase (Novagen) is added and lysates are further incubated for 30 min on ice and next centrifuged for 10 minutes at 12 000×g. The supernatant is then 1:1 diluted with compound or DMSO diluted to the appropriate concentration in water, and lysates are further incubated exactly 60 min on ice. Meanwhile, a PAMCHIP96 tyrosine peptide chip (PAMGENE) is blocked with 2% BSA (filtered through a 0.2 μm anopore filter; Whatmann) using the standard setting of a PAMSTATION96 (PAMGENE).
The composition of the kinase buffer is as follows: 1×ABL buffer (NEB), 0.5 mg/ml BSA (from 10 mg/ml NEB stock), 100 μM ATP (dissolved and diluted in 1×ABL buffer), 5 μg/ml PY20-FITC (ExAlpha Biologicals, azide-free preparation). A twofold concentrated kinase buffer is prepared chilled on ice, DMSO or compound is added as appropriate, and the solution is added 1:1 to the (compound treated) ice cold lysates, and immediately applied to a tyrosine peptide PAMCHIP96. The assay is run on a PAMSTATION96 according to standard procedures: after loading of the plate, solution is pumped once onto the wells, a first exposure is read (150 mSec) and then a kinetic reading program (reading every 5 min for 150 mSec) is run for 60 min. Lysates are run in 6 technical replicates for each condition; replicates are always applied horizontally next to each other to avoid vertical strip effects of the chip.
The data (spot images) are further quantified and linked to the peptide identities using EVOLVE PAMGRID software (PAMGENE). The quantified data are then fit to a curve using CurveFitHT software (PAMGENE) using the Vinip2 curve fitting algorithm, applied on the first 30 min of the assay; the initial velocity is derived at the first kinetic time point read. All subsequent data analyses were done on initial velocities (Vini) using the software packages Omniviz and R (Ihaka, R. and Gentlemen, R. (1996) R: a language for data analysis and graphics. J. Comput. Graph. Stat., 5, 299-314).
After replacing the Vini's lower than 0.1 by 0.1, all Vini's were log 2-transformed to approach normality.

SMILES: COc1cc2ncnc3c2cc1OCCCCCN(C)Cc1ccc(Br)cc1N3 [MTKI, 4,6-ethanediylidenepyrimido[4,5-b][6,1,12]benzoxadiazacyclopentadecine, 17-bromo-8,9,10,11,12,13,14,19-octahydro-20-methoxy-13-methyl-]
- ratio of initial velocity of peptide phosphorylation (A431 lysate, ENOG_37_49_Y43): 0.83
- ratio of initial velocity of peptide phosphorylation (A431 lysate, GSK3B_209_221_Y216): 0.56
- ratio of initial velocity of peptide phosphorylation (BT474OD lysate, CDK7_157_169_S164): 0.74
- ratio of initial velocity of peptide phosphorylation (BT474OD lysate, CREB1_122_134_Y134/S133): 0.90
- ratio of initial velocity of peptide phosphorylation (BT474OD lysate, DDR2_733_745_Y740): 0.83
- ratio of initial velocity of peptide phosphorylation (BT474OD lysate, ENOG_37_49_Y43): 0.55
- ratio of initial velocity of peptide phosphorylation (BT474OD lysate, GSK3B_209_221_Y216): 0.87
- ratio of initial velocity of peptide phosphorylation (BT474OD lysate, MK10_216_228_T221/Y223): 0.76
- ratio of initial velocity of peptide phosphorylation (BT474OD lysate, NCF1_313_325_S315/S320): 0.88
- ratio of initial velocity of peptide phosphorylation (BT474OD lysate, NPT2_501_513_T508): 0.77
- ratio of initial velocity of peptide phosphorylation (BT474OD lysate, PECA1_706_718_Y713): 0.51
- ratio of initial velocity of peptide phosphorylation (BT474OD lysate, PLCG1_764_776_Y771): 0.68
- ratio of initial velocity of peptide phosphorylation (BT474OD lysate, PRRX2_202_214_Y214): 0.56
- ratio of initial velocity of peptide phosphorylation (BT474OD lysate, RASA1_453_465_Y460): 0.61
- ratio of initial velocity of peptide phosphorylation (BT474OD lysate, STAT2_683_695_Y690): 0.91
- ratio of initial velocity of peptide phosphorylation (BT474OD lysate, SYN1_2_14_S9): 0.94
- ratio of initial velocity of peptide phosphorylation (BT474OD lysate, TYRO3_679_691_Y686): 0.88
- ratio of initial velocity of peptide phosphorylation (Colo699 lysate, CDK7_157_169_S164): 0.93
- ratio of initial velocity of peptide phosphorylation (Colo699 lysate, CREB1_122_134_Y134/S133): 0.86
- ratio of initial velocity of peptide phosphorylation (Colo699 lysate, DDR2_733_745_Y740): 1.20
- ratio of initial velocity of peptide phosphorylation (Colo699 lysate, ENOG_37_49_Y43): 0.86
- ratio of initial velocity of peptide phosphorylation (Colo699 lysate, GSK3B_209_221_Y216): 1.03
- ratio of initial velocity of peptide phosphorylation (Colo699 lysate, MK10_216_228_T221/Y223): 0.86
- ratio of initial velocity of peptide phosphorylation (Colo699 lysate, NCF1_313_325_S315/S320): 0.93
- ratio of initial velocity of peptide phosphorylation (Colo699 lysate, NPT2_501_513_T508): 0.95
- ratio of initial velocity of peptide phosphorylation (Colo699 lysate, PECA1_706_718_Y713): 0.83
- ratio of initial velocity of peptide phosphorylation (Colo699 lysate, PGFRB_768_780_Y771/Y775/Y778): 0.23
- ratio of initial velocity of peptide phosphorylation (Colo699 lysate, PLCG1_764_776_Y771): 0.78
- ratio of initial velocity of peptide phosphorylation (Colo699 lysate, PRRX2_202_214_Y214): 0.76
- ratio of initial velocity of peptide phosphorylation (Colo699 lysate, RASA1_453_465_Y460): 0.81
- ratio of initial velocity of peptide phosphorylation (Colo699 lysate, STAT2_683_695_Y690): 0.93
- ratio of initial velocity of peptide phosphorylation (Colo699 lysate, SYN1_2_14_S9): 0.95
- ratio of initial velocity of peptide phosphorylation (Colo699 lysate, TYRO3_679_691_Y686): 1.18
- ratio of initial velocity of peptide phosphorylation (DU145 lysate, CDK7_157_169_S164): 0.63
- ratio of initial velocity of peptide phosphorylation (DU145 lysate, CREB1_122_134_Y134/S133): 0.93
- ratio of initial velocity of peptide phosphorylation (DU145 lysate, DDR2_733_745_Y740): 0.71
- ratio of initial velocity of peptide phosphorylation (DU145 lysate, ENOG_37_49_Y43): 0.65
- ratio of initial velocity of peptide phosphorylation (DU145 lysate, GSK3B_209_221_Y216): 0.94
- ratio of initial velocity of peptide phosphorylation (DU145 lysate, MK10_216_228_T221/Y223): 0.66
- ratio of initial velocity of peptide phosphorylation (DU145 lysate, NCF1_313_325_S315/S320): 0.87
- ratio of initial velocity of peptide phosphorylation (DU145 lysate, NPT2_501_513_T508): 0.90
- ratio of initial velocity of peptide phosphorylation (DU145 lysate, PECA1_706_718_Y713): 0.73
- ratio of initial velocity of peptide phosphorylation (DU145 lysate, PGFRB_768_780_Y771/Y775/Y778): 0.39
- ratio of initial velocity of peptide phosphorylation (DU145 lysate, PLCG1_764_776_Y771): 0.76
- ratio of initial velocity of peptide phosphorylation (DU145 lysate, PRRX2_202_214_Y214): 0.68
- ratio of initial velocity of peptide phosphorylation (DU145 lysate, RASA1_453_465_Y460): 0.69
- ratio of initial velocity of peptide phosphorylation (DU145 lysate, STAT2_683_695_Y690): 0.93
- ratio of initial velocity of peptide phosphorylation (DU145 lysate, SYN1_2_14_S9): 0.92
- ratio of initial velocity of peptide phosphorylation (DU145 lysate, TYRO3_679_691_Y686): 0.68
- ratio of initial velocity of peptide phosphorylation (GTL16 lysate, CDK7_157_169_S164): 0.98
- ratio of initial velocity of peptide phosphorylation (GTL16 lysate, CREB1_122_134_Y134/S133): 0.91
- ratio of initial velocity of peptide phosphorylation (GTL16 lysate, DDR2_733_745_Y740): 1.00
- ratio of initial velocity of peptide phosphorylation (GTL16 lysate, ENOG_37_49_Y43): 0.80
- ratio of initial velocity of peptide phosphorylation (GTL16 lysate, GSK3B_209_221_Y216): 1.11
- ratio of initial velocity of peptide phosphorylation (GTL16 lysate, MK10_216_228_T221/Y223): 0.96
- ratio of initial velocity of peptide phosphorylation (GTL16 lysate, NCF1_313_325_S315/S320): 0.96
- ratio of initial velocity of peptide phosphorylation (GTL16 lysate, NPT2_501_513_T508): 0.89
- ratio of initial velocity of peptide phosphorylation (GTL16 lysate, PECA1_706_718_Y713): 0.95
- ratio of initial velocity of peptide phosphorylation (GTL16 lysate, PGFRB_768_780_Y771/Y775/Y778): 0.75
- ratio of initial velocity of peptide phosphorylation (GTL16 lysate, PLCG1_764_776_Y771): 0.90
- ratio of initial velocity of peptide phosphorylation (GTL16 lysate, PRRX2_202_214_Y214): 0.97
- ratio of initial velocity of peptide phosphorylation (GTL16 lysate, RASA1_453_465_Y460): 0.81
- ratio of initial velocity of peptide phosphorylation (GTL16 lysate, STAT2_683_695_Y690): 1.06
- ratio of initial velocity of peptide phosphorylation (GTL16 lysate, SYN1_2_14_S9): 0.91
- ratio of initial velocity of peptide phosphorylation (GTL16 lysate, TYRO3_679_691_Y686): 0.92
- ratio of initial velocity of peptide phosphorylation (H23 lysate, CDK7_157_169_S164): 0.92
- ratio of initial velocity of peptide phosphorylation (H23 lysate, CREB1_122_134_Y134/S133): 1.02
- ratio of initial velocity of peptide phosphorylation (H23 lysate, DDR2_733_745_Y740): 0.81
- ratio of initial velocity of peptide phosphorylation (H23 lysate, ENOG_37_49_Y43): 0.80
- ratio of initial velocity of peptide phosphorylation (H23 lysate, GSK3B_209_221_Y216): 1.09
- ratio of initial velocity of peptide phosphorylation (H23 lysate, MK10_216_228_T221/Y223): 0.98
- ratio of initial velocity of peptide phosphorylation (H23 lysate, NCF1_313_325_S315/S320): 0.86
- ratio of initial velocity of peptide phosphorylation (H23 lysate, NPT2_501_513_T508): 0.91
- ratio of initial velocity of peptide phosphorylation (H23 lysate, PECA1_706_718_Y713): 0.62
- ratio of initial velocity of peptide phosphorylation (H23 lysate, PLCG1_764_776_Y771): 0.84
- ratio of initial velocity of peptide phosphorylation (H23 lysate, PRRX2_202_214_Y214): 0.67
- ratio of initial velocity of peptide phosphorylation (H23 lysate, RASA1_453_465_Y460): 0.71
- ratio of initial velocity of peptide phosphorylation (H23 lysate, STAT2_683_695_Y690): 0.93
- ratio of initial velocity of peptide phosphorylation (H23 lysate, SYN1_2_14_S9): 1.01
